According to article PMC7933360:
No constants are given. Whether binding was seen depends on the method and setting. Binding seen in cells or lysates may run through a third protein. Some binding calls cover weakened binding; strength is not graded here.

T1: Gcm1 (glial cell missing 1), endogenous mouse (mouse (endogenous in C57BL/6 mESCs, NE-4C and CD-1 mouse embryos)) (UniProt P70348)
T1 sequence: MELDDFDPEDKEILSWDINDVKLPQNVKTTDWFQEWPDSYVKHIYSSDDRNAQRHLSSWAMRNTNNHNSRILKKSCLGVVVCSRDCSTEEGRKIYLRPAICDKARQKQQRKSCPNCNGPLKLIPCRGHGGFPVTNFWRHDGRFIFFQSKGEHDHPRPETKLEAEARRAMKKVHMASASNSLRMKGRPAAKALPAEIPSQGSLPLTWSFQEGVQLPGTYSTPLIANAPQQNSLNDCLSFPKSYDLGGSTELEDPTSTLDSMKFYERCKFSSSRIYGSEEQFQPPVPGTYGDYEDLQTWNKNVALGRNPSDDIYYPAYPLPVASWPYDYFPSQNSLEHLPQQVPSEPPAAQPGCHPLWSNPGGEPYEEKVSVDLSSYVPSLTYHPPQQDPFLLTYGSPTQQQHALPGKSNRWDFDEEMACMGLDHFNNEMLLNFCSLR

T2: Gcm1 overexpressed from the plasmid pGMLV-Gcm1 (UniProt P70348)
T2 sequence: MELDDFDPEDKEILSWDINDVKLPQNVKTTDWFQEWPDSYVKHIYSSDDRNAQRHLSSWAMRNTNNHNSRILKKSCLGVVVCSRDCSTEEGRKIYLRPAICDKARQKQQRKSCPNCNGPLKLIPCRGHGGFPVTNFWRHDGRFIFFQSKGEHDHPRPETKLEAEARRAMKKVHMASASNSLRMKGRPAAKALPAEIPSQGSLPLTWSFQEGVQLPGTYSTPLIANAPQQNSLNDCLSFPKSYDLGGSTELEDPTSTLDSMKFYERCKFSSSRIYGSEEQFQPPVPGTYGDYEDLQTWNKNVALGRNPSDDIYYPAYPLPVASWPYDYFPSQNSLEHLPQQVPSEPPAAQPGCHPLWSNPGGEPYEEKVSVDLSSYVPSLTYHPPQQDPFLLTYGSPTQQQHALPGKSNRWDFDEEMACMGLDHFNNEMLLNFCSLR

T3: GCM1, endogenous human (human (endogenous in fetal brain tissue)) (UniProt Q9NP62)
T3 sequence: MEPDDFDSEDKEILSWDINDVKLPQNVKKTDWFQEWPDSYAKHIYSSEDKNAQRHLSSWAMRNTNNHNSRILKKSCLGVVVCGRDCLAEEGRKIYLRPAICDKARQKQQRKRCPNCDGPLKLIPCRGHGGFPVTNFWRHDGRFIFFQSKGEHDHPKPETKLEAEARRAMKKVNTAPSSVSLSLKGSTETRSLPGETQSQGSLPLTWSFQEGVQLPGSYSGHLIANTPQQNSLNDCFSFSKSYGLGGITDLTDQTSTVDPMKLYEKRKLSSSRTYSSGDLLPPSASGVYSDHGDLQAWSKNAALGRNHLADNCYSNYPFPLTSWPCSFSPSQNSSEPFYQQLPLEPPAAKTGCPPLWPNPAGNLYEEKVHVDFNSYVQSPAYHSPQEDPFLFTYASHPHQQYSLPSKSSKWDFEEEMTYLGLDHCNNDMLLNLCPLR

T4: T-cell factor (TCF4), endogenous mouse (mouse (endogenous in C57BL/6 mESCs, NE-4C and CD-1 mouse embryos)), Q924A0
T4 chain: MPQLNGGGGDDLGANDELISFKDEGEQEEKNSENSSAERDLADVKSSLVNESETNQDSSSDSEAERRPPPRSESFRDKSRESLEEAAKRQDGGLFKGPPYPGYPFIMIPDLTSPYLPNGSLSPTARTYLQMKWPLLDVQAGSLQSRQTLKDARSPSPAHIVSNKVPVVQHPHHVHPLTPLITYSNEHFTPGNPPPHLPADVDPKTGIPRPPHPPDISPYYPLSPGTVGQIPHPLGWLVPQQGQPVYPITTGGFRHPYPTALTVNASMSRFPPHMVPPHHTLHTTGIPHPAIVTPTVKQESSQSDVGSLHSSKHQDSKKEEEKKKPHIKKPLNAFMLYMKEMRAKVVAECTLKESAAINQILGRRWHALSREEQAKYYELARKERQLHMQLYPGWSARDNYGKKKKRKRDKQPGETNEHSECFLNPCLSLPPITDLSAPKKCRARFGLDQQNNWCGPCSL


How the values were obtained:
[1] = target: T1, Gcm1 (glial cell missing 1), endogenous mouse (mouse (endogenous in C57BL/6 mESCs, NE-4C and CD-1 mouse embryos)); assay: co-IP; brains and spines of control and NTDs CD-1 mouse embryos (E9.5; low-folate diet and MTX); IP with anti-Gcm1 antibody, western blot for TCF4 and β-catenin
[2] = target: T1, Gcm1 (glial cell missing 1), endogenous mouse (mouse (endogenous in C57BL/6 mESCs, NE-4C and CD-1 mouse embryos)); assay: co-IP; C57BL/6 mESCs, control and folate-deficient; precleared nuclear protein incubated overnight at 4 °C with anti-Gcm1 or anti-TCF4 antibody cross-linked (disuccinimidyl suberate) to Protein A/G plus agarose; western blot
[3] = target: T2, Gcm1 overexpressed from the plasmid pGMLV-Gcm1; assay: co-IP; NE-4C cells transfected with pGMLV-Gcm1; IP with anti-Gcm1 antibody, western blot for TCF4 and β-catenin
[4] = target: T1, Gcm1 (glial cell missing 1), endogenous mouse (mouse (endogenous in C57BL/6 mESCs, NE-4C and CD-1 mouse embryos)); assay: co-IP; NE-4C cells, control and folate-deficient; nuclear protein with anti-Gcm1 or anti-TCF4 antibody cross-linked to Protein A/G plus agarose, overnight at 4 °C; western blot
[5] = target: T2, Gcm1 overexpressed from the plasmid pGMLV-Gcm1; assay: co-IP; C57BL/6 mESCs transfected with pGMLV-Gcm1 (72 h; 0.5, 2 and 4 µg for the TCF4/β-catenin panel); nuclear protein with antibody cross-linked to Protein A/G plus agarose, overnight at 4 °C; western blot
[6] = target: T3, GCM1, endogenous human (human (endogenous in fetal brain tissue)); assay: co-IP; human fetal brain tissue, normal and low-folate NTDs; IP with antibody against GCM1, western blot for β-catenin
[7] = target: T4, T-cell factor (TCF4), endogenous mouse …; assay: co-IP; C57BL/6 mESCs, control and folate-deficient; precleared nuclear protein incubated overnight at 4 °C with anti-Gcm1 or anti-TCF4 antibody cross-linked (disuccinimidyl suberate) to Protein A/G plus agarose; western blot; details: remark: other sources report otherwise
[8] = target: T4, T-cell factor (TCF4), endogenous mouse …; assay: co-IP; C57BL/6 mESCs transfected with pGMLV-Gcm1 (72 h; 0.5, 2 and 4 µg for the TCF4/β-catenin panel); nuclear protein with antibody cross-linked to Protein A/G plus agarose, overnight at 4 °C; western blot; details: remark: other sources report otherwise

binding [1] | binding [2] | binding [3] | binding [4] | binding [5] | binding [6] | binding [7] | binding [8] | Molecule
binds | binds | binds | binds | binds |  |  |  | T-cell factor (TCF4), endogenous mouse (from UniProt Q924A0 1-459)
binds | binds | binds | binds | binds |  |  |  | β-catenin, endogenous mouse (from UniProt Q02248 1-781)
 |  |  |  |  | binds |  |  | β-catenin, endogenous human (from UniProt P35222 1-781)
 |  |  |  |  |  | binds | binds | β-catenin, endogenous mouse, Q02248 1-781 (protein) MATQADLMELDMAMEPDRKAAVSHWQQQSYLDSGIHSGATTTAPSLSGKGNPEEEDVDTSQVLYEWEQGFSQSFTQEQVADIDGQYAMTRAQRVRAAMFPETLDEGMQIPSTQFDAAHPTNVQRLAEPSQMLKHAVVNLINYQDDAELATRAIPELTKLLNDEDQVVVNKAAVMVHQLSKKEASRHAIMRSPQMVSAIVRTMQNTNDVETARCTAGTLHNLSHHREGLLAIFKSGGIPALVKMLGSPVDSVLFYAITTLHNLLLHQEGAKMAVRLAGGLQKMVALLNKTNVKFLAITTDCLQILAYGNQESKLIILASGGPQALVNIMRTYTYEKLLWTTSRVLKVLSVCSSNKPAIVEAGGMQALGLHLTDPSQRLVQNCLWTLRNLSDAATKQEGMEGLLGTLVQLLGSDDINVVTCAAGILSNLTCNNYKNKMMVCQVGGIEALVRTVLRAGDREDITEPAICALRHLTSRHQEAEMAQNAVRLHYGLPVVVKLLHPPSHWPLIKATVGLIRNLALCPANHAPLREQGAIPRLVQLLVRAHQDTQRRTSMGGTQQQFVEGVRMEEIVEGCTGALHILARDVHNRIVIRGLNTIPLFVQLLYSPIENIQRVAAGVLCELAQDKEAAEAIEAEGATAPLTELLHSRNEGVATYAAAVLFRMSEDKPQDYKKRLSVELTSSLFRTEPMAWNETADLGLDIGAQGEALGYRQDDPSYRSFHSGGYGQDALGMDPMMEHEMGGHHPGADYPVDGLPDLGHAQDLMDGLPPGDSNQLAWFDTDL
